Assay results as given in PubChem BioAssay AID445 (National Center for Advancing Translational Sciences (NCATS), 2006).
This is one part of the list. The main result of the screen is listed elsewhere. These columns were measured beside it and carry no call. Most of these compounds were active or inconclusive in the main read-out, so they are no random draw. Words in brackets tell the shape of the fitted curve; partial curves, single points and poor fits give uncertain potencies.

Assay: IkB Signaling
Settings: ABC-DLBCL IkBa-CBG/CBR dual luciferase ratio (green luciferase fused to IkBa over red control in OCI-Ly3 lymphoma cells), 4 h; measured here: control luc red channel unless noted
Procedure, shortened: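 Luminescence ratio of IκBα-fused green versus native red beetle luciferase in OCI-Ly3 cells, 4 h post-doxycycline with compound; red signal alone, scaled from basal (0%) to zero light (-100%), flagged nonspecific or cytotoxic effects.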

Row | SMILES | AC50
1 | COCCCn1c(SCC(=O)Nc2ccccc2OC)nc2c(sc3ccccc32)c1=O | 39.8 µM [falling, single point]
2 | Nc1nc(CN2CCN(c3cccc(Cl)c3)CC2)nc(N2CCCc3ccccc32)n1 | 10 µM [falling, partial curve]
3 | CCOC(=O)C1CCCN(C(=O)Cn2ncn3c(cc4sc(CC)cc43)c2=O)C1 (stereo not given) | 25.1 µM [falling, single point]
4 | COc1cc(OC)c(NC(=O)Cc2ccc(-n3c(C)nc4cccnc43)cc2)cc1Cl | 25.1 µM [falling, single point]
5 | O=C(Nc1ccc(F)cc1)[C@@H](c1ccccc1)N1Cc2ccccc2C1=O | 31.6 µM [falling, single point]
6 | COc1ccc(NC(=O)Cn2c(=O)n(-c3ccc(OC)cc3)c(=O)c3ccc(C(=O)NCc4ccc(C)cc4)cc32)cc1 | 20 µM [rising, partial curve, poor fit]
7 | CC(C)c1ccc(NC(=O)CC2Oc3ccccc3NC2=O)cc1 (stereo not given) | 39.8 µM [falling, single point]
8 | Cc1cc(OCC(=O)N(Cc2ccc(N(C)C)cc2)C2CCS(=O)(=O)C2)cc(C)c1Cl (stereo not given) | 39.8 µM [falling, single point]
9 | Cc1ccc(NC(=O)C(=O)NCC(c2ccc3c(c2)OCO3)N2CCN(c3ccccc3)CC2)cc1 (stereo not given) | 7.94 µM [falling, partial curve, poor fit]
10 | COc1ccc(CC(=O)NCC(c2cccs2)S(=O)(=O)c2ccc(Cl)cc2)cc1 (stereo not given) | 12.6 µM [falling, partial curve]
11 | Cc1cc(F)ccc1NC(=O)c1ccc2nc(Cc3ccccc3)oc2c1 | 2 µM [falling, partial curve]
12 | COc1cc(C(=O)Nc2nnc(-c3sccc3C)s2)cc(OC)c1OC | 10 µM [falling, partial curve]
13 | Cn1nnnc1SCC(=O)N1CCN(Cc2ccccc2)CC1 | 3.16 µM [falling, full curve]
14 | Cc1ccc(C)c(N2CCN(C(=O)c3cc(S(=O)(=O)N4CCC(C)CC4)cn3C)CC2)c1 | 25.1 µM [falling, single point]
15 | Brc1ccc(-c2nnc3ccc(N4CCN(c5ccccc5)CC4)nn23)cc1 | 0.794 µM [rising, full curve, poor fit]
16 | CCOc1cc2[nH]c(=O)n(CCCCC(=O)N3CCN(c4ccccc4)CC3)c(=O)c2cc1OCC | 31.6 µM [rising, partial curve, poor fit]
17 | COc1cccc(/C=N/n2c(SC)nnc2-c2ccccc2)c1OC | 12.6 µM [falling, partial curve]
18 | CCCc1cc(C(=O)NC2CCCCC2)no1 | 2.51 µM [falling, full curve]
19 | Cc1cccc(N2CCN(C(=O)C3CCN(S(=O)(=O)c4c(C)noc4C)CC3)CC2)c1C | 25.1 µM [falling, single point]
20 | COc1ccc2oc(=O)c(-c3cn4c(n3)sc3cc(F)ccc34)cc2c1 | 12.6 µM [falling, partial curve]

Row | SMILES | AC50
21 | COC(=O)c1ccc([C@H]2Nc3ccc(S(=O)(=O)Nc4cccc(C)c4)cc3[C@H]3C=CC[C@H]32)cc1 | 20 µM [falling, partial curve]
22 | COCCNC(=O)CCCn1c(SCc2ccccc2Cl)nc2c(sc3ccccc32)c1=O | 20 µM [falling, single point]
23 | CCCCOc1ccc(C(=O)N(Cc2ccco2)Cc2ccco2)cc1 | 3.98 µM [rising, partial curve]
24 | Cc1c(-c2nnc(SCC(=O)Nc3ccc(Cl)cc3)o2)nnn1-c1ccc(F)cc1 | 7.94 µM [falling, full curve]
25 | O=C(Nc1nnc(-c2ccco2)s1)C1CCCCC1 | 15.8 µM [falling, partial curve]
26 | CCOC(=O)Cc1c(C)nc2c(-c3cccc(Br)c3)c[nH]n2c1=O | 12.6 µM [falling, partial curve]
27 | CCN1CCSc2ccc(C(=O)NCc3ccccc3Br)cc21 | 3.16 µM [falling, partial curve]
28 | CN1CCN(C2=C(Cl)C(=O)N(c3ccc(Cl)c(Cl)c3)C2=O)CC1 | 7.94 µM [falling, partial curve]
29 | COC(=O)Cc1c(C)nc2nc(-c3ccc(C)cc3)[nH]n2c1=O | 5.01 µM [falling, partial curve]
30 | O=C(Nc1ccccc1C(=O)OCC(=O)N1CCc2ccccc2C1)c1ccco1 | 25.1 µM [falling, partial curve]
31 | CCOc1cccc2sc(NC(=O)CS(=O)(=O)c3ccc(C)cc3)nc12 | 0.794 µM [falling, full curve, poor fit]
32 | CCN(Cc1ccccc1)S(=O)(=O)c1ccc(F)c(C(=O)Nc2cc(C(F)(F)F)ccc2Cl)c1 | 12.6 µM [falling, partial curve]
33 | COc1ccc(-n2c(=O)c3sc4ccccc4c3n(CC(=O)NC3CCCCC3)c2=O)cc1 | 0.316 µM [rising, full curve]
34 | COC(=O)CSc1ccc2c(N)c(C(=O)OC)sc2c1 | 10 µM [falling, partial curve]
35 | CCS(=O)(=O)c1c(Nc2cc(C)ccc2C)sc(C(=O)c2ccccc2)c1N | 39.8 µM [falling, single point]
36 | COc1cccc(-c2nc(S(=O)(=O)c3ccccc3)c(N3CCC(C)CC3)o2)c1 | 25.1 µM [falling, partial curve]
37 | CC1=C(C(=O)Nc2ccccc2)C(c2cc(Br)ccc2F)n2ncc(C(=O)Nc3ccccc3)c2N1 (stereo not given) | 5.01 µM [falling, partial curve]
38 | Cc1ccc(C(=O)n2nc(C)c(S(=O)(=O)N3CCOCC3)c2C)cc1C | 39.8 µM [falling, single point]
39 | COc1ccc(Cn2c(CO)cnc2SCc2cccc(C)c2)cc1 | 6.31 µM [falling, partial curve]
40 | COc1ccccc1N1CCN(C(=O)CCS(=O)(=O)c2cc(Br)cc3c2N(C(C)=O)CC3)CC1 | 15.8 µM [falling, partial curve]
